{
  "sequences": {"note": "By UniProt entry, the sequences of proteins in these tests, tags left out.", "UniProt Q9Y337, whole entry, looked up": "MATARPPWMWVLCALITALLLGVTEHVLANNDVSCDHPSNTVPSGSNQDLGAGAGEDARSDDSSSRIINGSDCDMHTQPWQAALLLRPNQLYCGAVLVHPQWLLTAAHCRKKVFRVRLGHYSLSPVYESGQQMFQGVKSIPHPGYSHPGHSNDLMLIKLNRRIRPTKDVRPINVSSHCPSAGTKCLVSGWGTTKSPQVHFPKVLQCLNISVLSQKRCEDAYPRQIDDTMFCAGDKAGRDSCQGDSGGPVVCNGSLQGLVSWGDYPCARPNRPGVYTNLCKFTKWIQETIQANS"},
  "source": "PubChem BioAssay AID873",
  "about": "(PCMD, 2007)",
  "note": "Only a part is listed here, and it is no random draw. Calls of active or inactive are those of the source.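 The calls were made as follows: active = inhibition of 40% or more; inactive = the rest.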",
  "data": [
    {"target": "Kallikrein-5 (Homo sapiens) (UniProt Q9Y337)", "assay": "inhibition of kallikrein 5 (hK5) activity – biochemical, 1536-well, primary screen (AID 873);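 also: 0% = enzyme controls without compound and 100% = no-enzyme blanks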", "settings": "recombinant hK5, fluorogenic AMC substrate cleavage; at 5 µM; active compounds read high", "values": [
      {"smiles": "Cc1c(-c2ccc(F)cc2)nc(N)c(C#N)c1-c1cccnc1", "inhibition": "active: 42%"},
      {"smiles": "CCOCCCNC(=S)NCCCNc1nc2c(C)c(C)ccc2cc1C#N", "inhibition": "active: 47.9%"}
    ]}
  ]
}
